{"source": "PubChem BioAssay AID686937, Drosophila RNAi Screening Center – 2013", "aim": "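Genes whose loss weakens secretory pathway function in fly cells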 (primary screen)", "cell system": "Drosophila S2 cells expressing secreted horseradish peroxidase", "reagent": "long dsRNA against Drosophila genes", "duration": "about 5.5 days (5 days dsRNA, then 12 h reporter induction)", "challenge": "reporter expression induced after 5 days of dsRNA, read 12 h later; inducer not stated", "read-out": "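After 5 days of dsRNA and 12 h of reporter induction, medium peroxidase read by chemiluminescence and scored as per-plate z-score; higher values mean more reporter released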", "scale": "z-score: higher = more reporter secreted into medium", "note": "In all, the deposit lists about 23,000 reagents; below is a random part of those with a known target gene and a result. 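Reduced-secretion tags in replicate 1 do not always agree with the z-scores; no criterion for assigning the tags was given.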 Names joined by + are all predicted targets of the reagent. Not all columns of the deposit are shown. The record does not give: the amount of reagent."}
{"Gene": "PEK", "PubChem SID": "SID104192153", "z-score, replicate 1": 0.04}
{"Gene": "CG14454", "PubChem SID": "SID104191503", "z-score, replicate 1": 0.61}
{"Gene": "BuGZ", "PubChem SID": "SID104182434", "z-score, replicate 1": 0.2}
{"Gene": "BuGZ", "PubChem SID": "SID104182435", "z-score, replicate 1": 0.29}
{"Gene": "Sobp", "PubChem SID": "SID104187104", "z-score, replicate 1": 0.67}
{"Gene": "CG8677 + CG31626", "PubChem SID": "SID104181630", "z-score, replicate 1": 0.36}
{"Gene": "CG13427", "PubChem SID": "SID104186181", "z-score, replicate 1": 0.59}
{"Gene": "Dpit47", "PubChem SID": "SID104184777", "z-score, replicate 1": 0.03}
{"Gene": "Gnpat", "PubChem SID": "SID104196752", "z-score, replicate 1": 0.48}
{"Gene": "Pgm2a", "PubChem SID": "SID104186860", "z-score, replicate 1": 0.25}
{"Gene": "CG8870", "PubChem SID": "SID104196244", "z-score, replicate 1": 0.32}
{"Gene": "CG1172", "PubChem SID": "SID104191974", "z-score, replicate 1": 0.47}
{"Gene": "CG1172", "PubChem SID": "SID104201566", "z-score, replicate 1": 0.6}
{"Gene": "ND-B14.5B", "PubChem SID": "SID104180138", "z-score, replicate 1": 0.39}
{"Gene": "CG10993", "PubChem SID": "SID104199154", "z-score, replicate 1": 0.42}
{"Gene": "CG9044", "PubChem SID": "SID104182922", "z-score, replicate 1": 0.23}
{"Gene": "Prosap", "PubChem SID": "SID104186174", "z-score, replicate 1": 0.26}
{"Gene": "Prosap", "PubChem SID": "SID104186873", "z-score, replicate 1": 0.22}
{"Gene": "Hmt4-20", "PubChem SID": "SID104198274", "z-score, replicate 1": 0.1}
{"Gene": "mRpL38", "PubChem SID": "SID104199526", "z-score, replicate 1": 0.09}
{"Gene": "CG40486", "PubChem SID": "SID104200411", "z-score, replicate 1": 0.27}
{"Gene": "hui", "PubChem SID": "SID104185769", "z-score, replicate 1": 0.68}
{"Gene": "CG14625", "PubChem SID": "SID104198425", "z-score, replicate 1": 0.37}
{"Gene": "Stat92E", "PubChem SID": "SID104196662", "z-score, replicate 1": 0.18}
{"Gene": "drm", "PubChem SID": "SID104180069", "z-score, replicate 1": -0.08}
{"Gene": "Prestin", "PubChem SID": "SID104190299", "z-score, replicate 1": 0.38}
{"Gene": "lcs", "PubChem SID": "SID104200372", "z-score, replicate 1": 0.51}

Look-ups from the entries so far:
Entry for Prosap [SID104186873] under “z-score, replicate 1”: 0.22
Value for Sobp [SID104187104] under “z-score, replicate 1”: 0.67
CG10993 [SID104199154], z-score, replicate 1 → 0.42
Entry for CG14454 [SID104191503] under “z-score, replicate 1”: 0.61
